Results deposited as PubChem BioAssay AID1224830 (NIAID, 2016)
Aim: 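Genes whose knock-down alters the TNF-alpha reporter response to LPS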 (primary screen). System: human THP-1 monocytic leukaemia cells, TNF dual-luciferase reporter clone, PMA-differentiated to macrophage-like cells. Knock-down reagent: siRNA pool against human genes, 50 nM. Duration: LPS for 4 h, given about 3 days after siRNA transfection. Treatment: bacterial LPS (TLR4 ligand), 10 ng/ml. Detection: 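TNF firefly reporter luminescence divided by renilla, normalised to the plate median, then turned into a robust z-score for each replicate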. Scale: TNF reporter robust z-score: higher = stronger TNF reporter response to LPS. Hit rule: 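a well is active when its z-score exceeds 2.8 or falls below -1.5; control wells carry no call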.
This is an unselected part of about 18,000 reagents. In the full data, about 2,900 (16%) got an active call. 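Calls are made per well; low scores hint the gene aids the LPS response, high scores that it dampens it.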 Repeated entries: four replicate wells of each siRNA pool.

Knock-down of SAMD4B (sterile alpha motif domain containing 4B) gave: TNF reporter robust z-score 0.8; inactive.
After knock-down of SAMD4B (sterile alpha motif domain containing 4B), the record shows TNF reporter robust z-score -0.45; inactive.
SAMD4B (sterile alpha motif domain containing 4B) showed TNF reporter robust z-score -0.7; inactive.
With knock-down of SAMD4B (sterile alpha motif domain containing 4B) the results were TNF reporter robust z-score -1.34; inactive.
LHX3 (LIM homeobox 3) showed TNF reporter robust z-score 1.76; inactive.
Silencing of LHX3 (LIM homeobox 3) came out at: TNF reporter robust z-score 2.07; inactive.
LHX3 (LIM homeobox 3) scored TNF reporter robust z-score 0.49; inactive.
LHX3 (LIM homeobox 3) gave TNF reporter robust z-score 0.54; inactive.
Against CLCN2 (chloride voltage-gated channel 2) the deposit lists TNF reporter robust z-score -1.61; active.
Against CLCN2 (chloride voltage-gated channel 2) the deposit lists TNF reporter robust z-score -0.88; inactive.
For CLCN2 (chloride voltage-gated channel 2) the deposit lists TNF reporter robust z-score -0.16; inactive.
CLCN2 (chloride voltage-gated channel 2) scored TNF reporter robust z-score -0.42; inactive.
Knock-down of H2BW1 (H2B.W histone 1) gave: TNF reporter robust z-score -0.97; inactive.
H2BW1 (H2B.W histone 1) scored TNF reporter robust z-score -1.1; inactive.
Against H2BW1 (H2B.W histone 1), the entry reads TNF reporter robust z-score 1.57; inactive.
Knock-down of H2BW1 (H2B.W histone 1) resulted in: TNF reporter robust z-score -0.99; inactive.
For COL6A1 (collagen type VI alpha 1 chain) the deposit lists TNF reporter robust z-score -0.83; inactive.
For COL6A1 (collagen type VI alpha 1 chain) the deposit lists TNF reporter robust z-score -0.6; inactive.
Depletion of COL6A1 (collagen type VI alpha 1 chain) came out at: TNF reporter robust z-score -0.84; inactive.
COL6A1 (collagen type VI alpha 1 chain) scored TNF reporter robust z-score 0; inactive.
SLC35A1 scored TNF reporter robust z-score 0.83; inactive.
For SLC35A1 the deposit lists TNF reporter robust z-score 0.65; inactive.
After knock-down of SLC35A1, the screen gave TNF reporter robust z-score 1.55; inactive.
Silencing of SLC35A1 resulted in: TNF reporter robust z-score -0.16; inactive.
Against KRT25 (keratin 25), the values are TNF reporter robust z-score -0.86; inactive.
After knock-down of KRT25 (keratin 25), the record shows TNF reporter robust z-score -0.29; inactive.
For KRT25 (keratin 25), the values are TNF reporter robust z-score -1.09; inactive.
Depletion of KRT25 (keratin 25) came out at: TNF reporter robust z-score -0.96; inactive.
Depletion of ZNF77 (zinc finger protein 77) came out at: TNF reporter robust z-score 0.17; inactive.
ZNF77 (zinc finger protein 77) scored TNF reporter robust z-score 0.3; inactive.
Against ZNF77 (zinc finger protein 77) the deposit lists TNF reporter robust z-score 0.51; inactive.
Silencing of ZNF77 (zinc finger protein 77) came out at: TNF reporter robust z-score -0.42; inactive.

Sorted by “TNF reporter robust z-score” (highest first): some entries from above
SLC35A1 — TNF reporter robust z-score: 1.55; activity call: inactive
SLC35A1 — TNF reporter robust z-score: 0.65; activity call: inactive
ZNF77 (zinc finger protein 77) — TNF reporter robust z-score: 0.17; activity call: inactive
SLC35A1 — TNF reporter robust z-score: -0.16; activity call: inactive
KRT25 (keratin 25) — TNF reporter robust z-score: -0.29; activity call: inactive
KRT25 (keratin 25) — TNF reporter robust z-score: -0.86; activity call: inactive
KRT25 (keratin 25) — TNF reporter robust z-score: -0.96; activity call: inactive
KRT25 (keratin 25) — TNF reporter robust z-score: -1.09; activity call: inactive

Continued:
Silencing of MUC7 (mucin 7, secreted) gave: TNF reporter robust z-score 0.78; inactive.
After knock-down of MUC7 (mucin 7, secreted), the screen gave TNF reporter robust z-score 1.36; inactive.
For MUC7 (mucin 7, secreted), the entry reads TNF reporter robust z-score -0.36; inactive.
After knock-down of MUC7 (mucin 7, secreted), the screen gave TNF reporter robust z-score 3.08; active.
Knock-down of PCDHA13 (protocadherin alpha 13) gave: TNF reporter robust z-score -1.5; inactive.
PCDHA13 (protocadherin alpha 13) gave TNF reporter robust z-score -1.67; active.
After knock-down of PCDHA13 (protocadherin alpha 13), the record shows TNF reporter robust z-score -1.57; active.
PCDHA13 (protocadherin alpha 13) showed TNF reporter robust z-score -1.74; active.
With knock-down of GMDS (GDP-mannose 4,6-dehydratase), the record shows TNF reporter robust z-score 2.68; inactive.
For GMDS (GDP-mannose 4,6-dehydratase), the entry reads TNF reporter robust z-score 4.84; active.
With knock-down of GMDS (GDP-mannose 4,6-dehydratase), the screen gave TNF reporter robust z-score 2.74; inactive.
For GMDS (GDP-mannose 4,6-dehydratase), the values are TNF reporter robust z-score 4.59; active.
PSMB7 (proteasome 20S subunit beta 7) showed TNF reporter robust z-score -0.38; inactive.
With knock-down of PSMB7 (proteasome 20S subunit beta 7), the record shows TNF reporter robust z-score 0.73; inactive.
Depletion of PSMB7 (proteasome 20S subunit beta 7) came out at: TNF reporter robust z-score -0.22; inactive.
Against PSMB7 (proteasome 20S subunit beta 7) the deposit lists TNF reporter robust z-score 1.03; inactive.
